Reference: the supplement of paper PMC11438910
Some of the results follow. Only a few entries rise above the background.

Assays:
Experiment in all cases: fluorescence intensity of antibody binding to polysaccharide-coupled beads; higher = stronger binding
[1] = target: pneumococcal polysaccharide Pn35C
Description: (§1)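 Recombinant rhesus-murine chimeric IgG1 antibodies were tested against antigen-coupled MagPlex beads in a 96-plex Luminex direct immunoassay (dLIA). The beads carried pneumococcal capsular polysaccharides of 93 serotypes plus C-polysaccharides. Antibody was added at 0.1–12,500 ng/mL for 1 h, then PE anti-mouse IgG, and net MFI was read on a Bio-Plex 3D. Only the rhesus variable regions are printed; constant regions are murine IgG1/kappa/lambda, and the signal peptide is MGWSCIILFLVATATGVHS.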

[2] = target: pneumococcal polysaccharide Pn35F
Description: as §1

[3] = target: pneumococcal polysaccharide Pn36
Description: as §1

[4] = target: pneumococcal polysaccharide Pn37
Description: as §1

[5] = target: pneumococcal polysaccharide Pn38
Description: as §1

[6] = target: pneumococcal polysaccharide Pn39
Description: as §1

[7] = target: pneumococcal polysaccharide Pn4
Description: as §1

[8] = target: pneumococcal polysaccharide Pn40
Description: as §1

[9] = target: pneumococcal polysaccharide Pn41A
Description: as §1

[10] = target: pneumococcal polysaccharide Pn41F
Description: as §1

[11] = target: pneumococcal polysaccharide Pn42
Description: as §1

[12] = target: pneumococcal polysaccharide Pn43
Description: as §1

[13] = antibody concentration 2337.65 ng/mL
[14] = antibody concentration 12500 ng/mL
[15] = antibody concentration 0.1 ng/mL
[16] = antibody concentration 0.534724 ng/mL
[17] = antibody concentration 2.8593 ng/mL
[18] = antibody concentration 15.2894 ng/mL
[19] = antibody concentration 81.7561 ng/mL
[20] = antibody concentration 437.17 ng/mL

B1: 4-99.4 (protein)
chain 1: QVQLQESGPGLVKPSETLSLTCAVSGYSISSAYFWGWIRQPPGKGLEYIGYISGEGGKSYYNPSLMSRVTISKDTSKNQFSLKLNTVTAADTAVYYCARRAILVGFDLWGQGVLVTVSS
chain 2: QAAPTQPPSVSGSPGQSVTISCTGSNSDIGYYNAVSWYQQHPGKAPKLMIYEVSKRPSGVSDRLTGSKSGNTASLTISGLQAEDEADYYCSSYAGSNTYIFGTGTRLTVL
[1]; [13]
  fluorescence intensity: 22 MFI
[1]; [14]
  fluorescence intensity: 24.5 MFI
[2]; [15]
  fluorescence intensity: 22.8 MFI
[2]; [16]
  fluorescence intensity: 21.5 MFI
[2]; [17]
  fluorescence intensity: 20 MFI
[2]; [18]
  fluorescence intensity: 20.8 MFI
[2]; [19]
  fluorescence intensity: 19 MFI
[2]; [20]
  fluorescence intensity: 21.8 MFI
[2]; [13]
  fluorescence intensity: 21.8 MFI
[2]; [14]
  fluorescence intensity: 22.5 MFI
[3]; [15]
  fluorescence intensity: 15 MFI
[3]; [16]
  fluorescence intensity: 16 MFI
[3]; [17]
  fluorescence intensity: 16.5 MFI
[3]; [18]
  fluorescence intensity: 15 MFI
[3]; [19]
  fluorescence intensity: 16 MFI
[3]; [20]
  fluorescence intensity: 17 MFI
[3]; [13]
  fluorescence intensity: 18.2 MFI
[3]; [14]
  fluorescence intensity: 53 MFI
[4]; [15]
  fluorescence intensity: 26 MFI
[4]; [16]
  fluorescence intensity: 26.8 MFI
[4]; [17]
  fluorescence intensity: 27.2 MFI
[4]; [18]
  fluorescence intensity: 26.5 MFI
[4]; [19]
  fluorescence intensity: 27 MFI
[4]; [20]
  fluorescence intensity: 28.5 MFI
[4]; [13]
  fluorescence intensity: 37.5 MFI
[4]; [14]
  fluorescence intensity: 206 MFI
[5]; [15]
  fluorescence intensity: 26.5 MFI
[5]; [16]
  fluorescence intensity: 26 MFI
[5]; [17]
  fluorescence intensity: 26 MFI
[5]; [18]
  fluorescence intensity: 25 MFI
[5]; [19]
  fluorescence intensity: 26.5 MFI
[5]; [20]
  fluorescence intensity: 26 MFI
[5]; [13]
  fluorescence intensity: 29 MFI
[5]; [14]
  fluorescence intensity: 36 MFI
[6]; [15]
  fluorescence intensity: 18.5 MFI
[6]; [16]
  fluorescence intensity: 19 MFI
[6]; [17]
  fluorescence intensity: 19 MFI
[6]; [18]
  fluorescence intensity: 19 MFI
[6]; [19]
  fluorescence intensity: 17.5 MFI
[6]; [20]
  fluorescence intensity: 18.5 MFI
[6]; [13]
  fluorescence intensity: 20 MFI
[6]; [14]
  fluorescence intensity: 40 MFI
[7]; [15]
  fluorescence intensity: 19 MFI
[7]; [16]
  fluorescence intensity: 19.5 MFI
[7]; [17]
  fluorescence intensity: 19.5 MFI
[7]; [18]
  fluorescence intensity: 19.5 MFI
[7]; [19]
  fluorescence intensity: 19.2 MFI
[7]; [20]
  fluorescence intensity: 22 MFI
[7]; [13]
  fluorescence intensity: 25.2 MFI
[7]; [14]
  fluorescence intensity: 43.8 MFI
[8]; [15]
  fluorescence intensity: 17 MFI
[8]; [16]
  fluorescence intensity: 15 MFI
[8]; [17]
  fluorescence intensity: 16.5 MFI
[8]; [18]
  fluorescence intensity: 17.5 MFI
[8]; [19]
  fluorescence intensity: 16.8 MFI
[8]; [20]
  fluorescence intensity: 19 MFI
[8]; [13]
  fluorescence intensity: 19.5 MFI
[8]; [14]
  fluorescence intensity: 66 MFI
[9]; [15]
  fluorescence intensity: 23.5 MFI
[9]; [16]
  fluorescence intensity: 24 MFI
[9]; [17]
  fluorescence intensity: 23.5 MFI
[9]; [18]
  fluorescence intensity: 24.5 MFI
[9]; [19]
  fluorescence intensity: 24 MFI
[9]; [20]
  fluorescence intensity: 24 MFI
[9]; [13]
  fluorescence intensity: 25.5 MFI
[9]; [14]
  fluorescence intensity: 30 MFI
[10]; [15]
  fluorescence intensity: 12.5 MFI
[10]; [16]
  fluorescence intensity: 13 MFI
[10]; [17]
  fluorescence intensity: 13 MFI
[10]; [18]
  fluorescence intensity: 14 MFI
[10]; [19]
  fluorescence intensity: 13.5 MFI
[10]; [20]
  fluorescence intensity: 13.5 MFI
[10]; [13]
  fluorescence intensity: 15 MFI
[10]; [14]
  fluorescence intensity: 21.5 MFI
[11]; [15]
  fluorescence intensity: 10.5 MFI
[11]; [16]
  fluorescence intensity: 12 MFI
[11]; [17]
  fluorescence intensity: 11.5 MFI
[11]; [18]
  fluorescence intensity: 12 MFI
[11]; [19]
  fluorescence intensity: 12 MFI
[11]; [20]
  fluorescence intensity: 13 MFI
[11]; [13]
  fluorescence intensity: 13.5 MFI
[11]; [14]
  fluorescence intensity: 29 MFI
[12]; [15]
  fluorescence intensity: 16 MFI
[12]; [16]
  fluorescence intensity: 16.8 MFI
[12]; [17]
  fluorescence intensity: 16.5 MFI
[12]; [18]
  fluorescence intensity: 16 MFI
[12]; [19]
  fluorescence intensity: 15.5 MFI
[12]; [20]
  fluorescence intensity: 18 MFI
[12]; [13]
  fluorescence intensity: 23 MFI
[12]; [14]
  fluorescence intensity: 104 MFI
